# Record: PubChem BioAssay AID686943 (Drosophila RNAi Screening Center, 2013)
# Purpose: 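Knockdowns that increase or decrease active ERK after insulin receptor stimulation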 (primary screen)
# System: Drosophila S2R+ haemocyte-like cells expressing YFP-tagged ERK (Rolled)
# Knock-down reagent: long dsRNA against Drosophila genes
# Treatment: insulin stimulation versus unstimulated cells; dose and duration not given
# Measured: 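Antibody staining for doubly phosphorylated ERK divided by ERK-YFP signal, as plate z-scores, in insulin-treated and untreated cells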
# Reading the numbers: replicate 1, z-score of dpERK with insulin and replicate 2, z-score of dpERK with insulin: higher = more active ERK per ERK-YFP after insulin; replicate 1, z-score of dpERK under basal conditions: higher = more basal active ERK per ERK-YFP; replicate 1, z-score of ERK-YFP with insulin: higher = more YFP-tagged ERK signal
# The deposit covers about 23,000 reagents; below is a random part of those that have a named target and a result. 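Extra replicates exist only for a retested subset of genes; insulin dose and duration not given; both raised and lowered dpERK matter.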 Names joined by + are all predicted targets of the reagent. Not stated in the record: the amount of reagent, the time to read-out.
gene knocked down,dsRNA,"replicate 1, z-score of dpERK with insulin","replicate 2, z-score of dpERK with insulin","replicate 1, z-score of dpERK under basal conditions","replicate 1, z-score of ERK-YFP with insulin"
Sems (GeneID 40315),DRSC11626,0.13,-0.14,-0.46,0
CG15368 (GeneID 31861),DRSC18040,-1.73,-1.94,0.18,2.75
CG7402 (GeneID 39994),DRSC10839,0.4,-0.06,-1.88,-0.19
beag (GeneID 41091),DRSC15296,-1.13,-0.12,-0.67,-0.36
didum (GeneID 35680),DRSC07603,0.2,0.02,-0.48,0.25
CG31661 (GeneID 33330),DRSC00296,-0.68,-0.62,0,0.48
CG3793 (GeneID 34928),DRSC01982,-0.27,-0.23,-0.29,0.04
Myb (GeneID 32543),DRSC20260,-1.74,-0.93,3.27,-0.27
ine (GeneID 33659),DRSC00822,0.18,0.99,-0.75,0.08
CG14269 (GeneID 31312),DRSC17912,1.8,0.18,-0.09,-1.28
CG9920 (GeneID 41712),DRSC16578,0.78,0,0.31,-0.27
KP78a + KP78b,DRSC16721,-0.7,0.15,-0.38,0.2
KP78a + KP78b,DRSC16722,-0.5,-0.59,-0.35,0.22
CG8299 (GeneID 36751),DRSC07139,-0.32,0.26,0.37,0.08
CG15773 (GeneID 31494),DRSC18079,0.11,-0.04,-0.5,0.24
CG3045 (GeneID 37531),DRSC04331,0.4,0.07,0.34,0.24
CG10038 (GeneID 41495),DRSC14178,-0.02,0.48,-0.42,0.22
CG13540 (GeneID 37686),DRSC04182,0,-1.29,-0.45,0.21
TkR99D (GeneID 43551),DRSC16881,1.35,0.03,-0.01,-0.26
CG32117 (GeneID 317864),DRSC21652,0.68,0.44,2.29,0.04
CG17580 (GeneID 50228),DRSC06683,0.27,0.5,-0.07,0.04
gus (GeneID 35478),DRSC04885,0.09,-0.1,-0.5,-0.03
gus (GeneID 35478),DRSC04886,0.05,-1.38,2.01,-0.62
Ect3 (GeneID 41457),DRSC15462,1.35,3.75,0.04,-0.91
UQCR-14L (GeneID 43369),DRSC15288,0.71,-0.09,-1.27,-0.56
UQCR-14L (GeneID 43369),DRSC22425,0.66,0.63,-0.1,0.84
TwdlV (GeneID 40537),DRSC12226,0.01,-0.81,0.21,-0.33
l(2)37Bb (GeneID 49427),DRSC02088,-0.1,0.25,0.39,0.01
Kpc2 (GeneID 37261),DRSC07635,-0.67,-0.47,0.38,-0.01
Jhbp11 (GeneID 43263),DRSC15183,0.06,-0.09,-0.06,0.42
snz (GeneID 31704),DRSC17969,-0.48,-0.19,-0.04,1.06
CG32750 (GeneID 326238),DRSC18848,-0.89,1.23,0.98,0.78
prd1 (GeneID 41425),DRSC15227,-0.84,-2.11,-1.51,1
Gr97a (GeneID 117338),DRSC13802,-0.25,-0.23,-0.03,0.11
Unc-115b + p24-2 + Unc-115a,DRSC16502,0.27,0.22,-0.28,-0.04
Sur (GeneID 34350),DRSC03447,-0.26,0.83,0.12,0.87
CG31681 (GeneID 318882),DRSC00107,0.31,0.73,0.68,-0.33
mEFG1 (GeneID 34004),DRSC02758,-0.94,-0.35,-1.38,-2.04
CG15471 (GeneID 31412),DRSC18054,-1.85,-1.85,-0.59,0.43
Nufip (GeneID 40043),DRSC10397,-0.05,-0.45,-0.04,0.01
Hsp70Aa + Hsp70Bb + Hsp70Ba + 3 more,DRSC15380,0.16,-2.2,-0.05,-4
Uch-L5R (GeneID 32173),DRSC19825,-1.03,-0.59,-0.23,-0.83
ETH + asRNA:CR43257,DRSC04612,0.58,0.59,0.04,-0.42
Fcp1 (GeneID 37925),DRSC04121,-0.05,-0.36,-0.26,0.22
CG12857 (GeneID 36642),DRSC06197,0.64,-0.06,0.21,0.22
Tmf (GeneID 31629),DRSC18368,0.53,1.19,0.42,0.19
Alp1 (GeneID 40372),DRSC11781,0.31,-0.14,1.1,-0.02
CG13108 (GeneID 34240),DRSC02206,0.64,0.96,0.92,-0.63
Wnt6 (GeneID 34010),DRSC02795,-0.06,-0.2,-0.4,0.13
Cep164 (GeneID 32563),DRSC20163,-0.42,-0.34,-0.1,1.11
CG32243 (GeneID 317935),DRSC08105,0.2,0.48,2.57,0.52
Gp93 (GeneID 43354),DRSC15827,1.2,0.59,-0.41,0.09
CG8950 (GeneID 36921),DRSC07300,0.19,-0.44,-0.36,0.29
AsnS (GeneID 2768965),DRSC11468,0.5,0.7,0.36,-1.25
onecut (GeneID 45816),DRSC17175,-0.37,-0.63,-0.59,0.32
CG1208 (GeneID 40727),DRSC12190,-0.39,-0.27,-1.11,0.84
Hou (GeneID 32852),DRSC20001,0.25,-0.74,-0.33,0.05
Hou (GeneID 32852),DRSC22347,0.33,-0.29,0,0.22

8 entries from above, limited to “replicate 2, z-score of dpERK with insulin”.
CG32750 (GeneID 326238) [DRSC18848]	1.23
prd1 (GeneID 41425) [DRSC15227]	-2.11
Gr97a (GeneID 117338) [DRSC13802]	-0.23
Unc-115b + p24-2 + Unc-115a [DRSC16502]	0.22
Sur (GeneID 34350) [DRSC03447]	0.83
CG31681 (GeneID 318882) [DRSC00107]	0.73
mEFG1 (GeneID 34004) [DRSC02758]	-0.35
CG15471 (GeneID 31412) [DRSC18054]	-1.85
